Results as given in publication PMC8384837.
Positions count from the first letter of the chain named. This is one part of the list.

Tests used:
Conditions in all cases: yeast three-hybrid, YBZ-1, SC-Leu-His + 0.5 mM 3-AT, 4 days
[1] = biological target: T1, PUM1 PUF domain R5-GGR C1007G + R1008G + Q1011R (Homo sapiens) (UniProt Q14671)
T1 sequence: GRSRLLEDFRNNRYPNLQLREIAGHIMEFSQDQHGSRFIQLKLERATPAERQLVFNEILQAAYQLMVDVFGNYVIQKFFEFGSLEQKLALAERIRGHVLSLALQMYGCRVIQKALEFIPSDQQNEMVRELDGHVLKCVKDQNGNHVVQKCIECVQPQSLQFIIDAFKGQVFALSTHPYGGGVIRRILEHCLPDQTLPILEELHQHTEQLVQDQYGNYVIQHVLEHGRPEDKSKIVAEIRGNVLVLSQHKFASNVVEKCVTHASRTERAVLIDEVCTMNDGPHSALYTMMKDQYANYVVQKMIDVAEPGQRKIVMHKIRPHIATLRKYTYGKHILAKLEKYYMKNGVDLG

[2] = biological target: T2, PUM1 PUF domain R5-GPR C1007G + R1008P + Q1011R (Homo sapiens) (UniProt Q14671)
T2 sequence: T1 sequence with G181P

[3] = biological target: T3, PUM1 PUF domain R5-HRL C1007H + Q1011L (Homo sapiens) (UniProt Q14671)
T3 sequence: T1 sequence with G180H, G181R, R184L

[4] = biological target: T4, PUM1 PUF domain R5-HRP C1007H + Q1011P (Homo sapiens) (UniProt Q14671)
T4 sequence: T1 sequence with G180H, G181R, R184P

[5] = biological target: T5, PUM1 PUF domain R5-KGV C1007K + R1008G + Q1011V (Homo sapiens) (UniProt Q14671)
T5 sequence: T1 sequence with G180K, R184V

[6] = biological target: T6, PUM1 PUF domain R5-KNG C1007K + R1008N + Q1011G (Homo sapiens) (UniProt Q14671)
T6 sequence: T1 sequence with G180K, G181N, R184G

[7] = biological target: T7, PUM1 PUF domain R5-KRP C1007K + Q1011P (Homo sapiens) (UniProt Q14671)
T7 sequence: T1 sequence with G180K, G181R, R184P

[8] = biological target: T8, PUM1 PUF domain R5-NGS C1007N + R1008G + Q1011S (Homo sapiens) (UniProt Q14671)
T8 sequence: T1 sequence with G180N, R184S

[9] = biological target: T9, PUM1 PUF domain R5-QCR C1007Q + R1008C + Q1011R (Homo sapiens) (UniProt Q14671)
T9 sequence: T1 sequence with G180Q, G181C

[10] = biological target: T10, PUM1 PUF domain R5-QMG C1007Q + R1008M + Q1011G (Homo sapiens) (UniProt Q14671)
T10 sequence: T1 sequence with G180Q, G181M, R184G

[11] = biological target: T11, PUM1 PUF domain R5-RAT C1007R + R1008A + Q1011T (Homo sapiens) (UniProt Q14671)
T11 sequence: T1 sequence with G180R, G181A, R184T

[12] = biological target: T12, PUM1 PUF domain R5-RKP C1007R + R1008K + Q1011P (Homo sapiens) (UniProt Q14671)
T12 sequence: T1 sequence with G180R, G181K, R184P

[13] = biological target: T13, PUM1 PUF domain R5-RLM C1007R + R1008L + Q1011M (Homo sapiens) (UniProt Q14671)
T13 sequence: T1 sequence with G180R, G181L, R184M

[14] = biological target: T14, PUM1 PUF domain R5-RNV C1007R + R1008N + Q1011V (Homo sapiens) (UniProt Q14671)
T14 sequence: T1 sequence with G180R, G181N, R184V

[15] = biological target: T15, PUM1 PUF domain R5-RQI C1007R + R1008Q + Q1011I (Homo sapiens) (UniProt Q14671)
T15 sequence: T1 sequence with G180R, G181Q, R184I

[16] = biological target: T16, PUM1 PUF domain R5-RSI C1007R + R1008S + Q1011I (Homo sapiens) (UniProt Q14671)
T16 sequence: T1 sequence with G180R, G181S, R184I

[17] = biological target: T17, PUM1 PUF domain R5-SMG C1007S + R1008M + Q1011G (Homo sapiens) (UniProt Q14671)
T17 sequence: T1 sequence with G180S, G181M, R184G

[18] = biological target: T18, PUM1 PUF domain R5-TPR C1007T + R1008P + Q1011R (Homo sapiens) (UniProt Q14671)
T18 sequence: T1 sequence with G180T, G181P

[19] = biological target: T19, PUM1 PUF domain R5-TSR C1007T + R1008S + Q1011R (Homo sapiens) (UniProt Q14671)
T19 sequence: T1 sequence with G180T, G181S

[20] = biological target: T20, PUM1 PUF domain R5-WHG C1007W + R1008H + Q1011G (Homo sapiens) (UniProt Q14671)
T20 sequence: T1 sequence with G180W, G181H, R184G

In the case of “GGCUAGAACUAGUGGAUCCCCCGGCGCCCGGCGGCUCGAGCCCGGGUAAGUGUAAAUAGUCUGCAUGCCGCCGGGCGCCAUGCCUGCAGGUCGACUCUAGAAAACAUG”, the binding signal (log2 enrichment (interaction score)) [1] is reported as -0.59, the binding signal (log2 enrichment (interaction score)) [2] is reported as -0.81 and the binding signal (log2 enrichment (interaction score)) [3] is reported as -0.52. For the same sequence, the binding signal (log2 enrichment (interaction score)) [4] was -0.95, the binding signal (log2 enrichment (interaction score)) [5] was -0.7 and the binding signal (log2 enrichment (interaction score)) [6] was -0.53. The binding signal (log2 enrichment (interaction score)) [7] was -0.53, the binding signal (log2 enrichment (interaction score)) [8] was -0.7 and the binding signal (log2 enrichment (interaction score)) [9] was -0.65. The binding signal (log2 enrichment (interaction score)) [10] was -0.51, the binding signal (log2 enrichment (interaction score)) [11] was -1.03 and the binding signal (log2 enrichment (interaction score)) [12] was -0.52. The binding signal (log2 enrichment (interaction score)) [13] was -0.64, the binding signal (log2 enrichment (interaction score)) [14] was -0.62 and the binding signal (log2 enrichment (interaction score)) [15] was -0.7. It also gave a binding signal (log2 enrichment (interaction score)) [16] of -0.51, a binding signal (log2 enrichment (interaction score)) [17] of -0.63 and a binding signal (log2 enrichment (interaction score)) [18] of -0.91. For the same sequence, the binding signal (log2 enrichment (interaction score)) [19] was -0.62 and the binding signal (log2 enrichment (interaction score)) [20] was -0.64.
